Laboratory results as given in patent US20030166232A1 (LUDWIG INSTITUTE FOR CANCER RESEARCH, published 2003).
These are yes or no findings as the source states them, for the method shown. Binding seen in cells or lysates may run through a third protein. Some binding calls cover weakened binding; strength is not graded here. Where a sequence is shown, tags or fusion partners need not be part of it.

B1: GST-PDZ 4 (glutathione S-transferase fused to PTPL1 residues 1762-1864) (protein, not shown: a dimerising Fc or GST)
chain: FELEVELLITLIKSEKASLGFTVTKGNQRIGCYVHDVIQDPAKSDGRLKPGDRLIKVNDTDVTNMTHTDAVNLLRAASKTVRLVIGRVLELPRIPMLPHLLPD
B2: GST-PDZ 4-5 (glutathione S-transferase fused to PTPL1 residues 1762-1960) (protein, not shown: a dimerising Fc or GST)
chain: FELEVELLITLIKSEKASLGFTVTKGNQRIGCYVHDVIQDPAKSDGRLKPGDRLIKVNDTDVTNMTHTDAVNLLRAASKTVRLVIGRVLELPRIPMLPHLLPDITLTCNKEELGFSLCGGHDSLYQVVYISDINPRSVAAIEGNLQLLDVIHYVNGVSTQGMTLEEVNRALDMSLPSLVLKATRNDLPVVPSSKRSAVS

Assays:
[1] = molecular target: T1, PARG (PTPL1 Associated RhoGAP), the 150 kDa component from PC-3 cell lysate (human) (UniProt Q52LW3); experiment: GST pull-down / peptide-bead binding, told in the description
T1 sequence: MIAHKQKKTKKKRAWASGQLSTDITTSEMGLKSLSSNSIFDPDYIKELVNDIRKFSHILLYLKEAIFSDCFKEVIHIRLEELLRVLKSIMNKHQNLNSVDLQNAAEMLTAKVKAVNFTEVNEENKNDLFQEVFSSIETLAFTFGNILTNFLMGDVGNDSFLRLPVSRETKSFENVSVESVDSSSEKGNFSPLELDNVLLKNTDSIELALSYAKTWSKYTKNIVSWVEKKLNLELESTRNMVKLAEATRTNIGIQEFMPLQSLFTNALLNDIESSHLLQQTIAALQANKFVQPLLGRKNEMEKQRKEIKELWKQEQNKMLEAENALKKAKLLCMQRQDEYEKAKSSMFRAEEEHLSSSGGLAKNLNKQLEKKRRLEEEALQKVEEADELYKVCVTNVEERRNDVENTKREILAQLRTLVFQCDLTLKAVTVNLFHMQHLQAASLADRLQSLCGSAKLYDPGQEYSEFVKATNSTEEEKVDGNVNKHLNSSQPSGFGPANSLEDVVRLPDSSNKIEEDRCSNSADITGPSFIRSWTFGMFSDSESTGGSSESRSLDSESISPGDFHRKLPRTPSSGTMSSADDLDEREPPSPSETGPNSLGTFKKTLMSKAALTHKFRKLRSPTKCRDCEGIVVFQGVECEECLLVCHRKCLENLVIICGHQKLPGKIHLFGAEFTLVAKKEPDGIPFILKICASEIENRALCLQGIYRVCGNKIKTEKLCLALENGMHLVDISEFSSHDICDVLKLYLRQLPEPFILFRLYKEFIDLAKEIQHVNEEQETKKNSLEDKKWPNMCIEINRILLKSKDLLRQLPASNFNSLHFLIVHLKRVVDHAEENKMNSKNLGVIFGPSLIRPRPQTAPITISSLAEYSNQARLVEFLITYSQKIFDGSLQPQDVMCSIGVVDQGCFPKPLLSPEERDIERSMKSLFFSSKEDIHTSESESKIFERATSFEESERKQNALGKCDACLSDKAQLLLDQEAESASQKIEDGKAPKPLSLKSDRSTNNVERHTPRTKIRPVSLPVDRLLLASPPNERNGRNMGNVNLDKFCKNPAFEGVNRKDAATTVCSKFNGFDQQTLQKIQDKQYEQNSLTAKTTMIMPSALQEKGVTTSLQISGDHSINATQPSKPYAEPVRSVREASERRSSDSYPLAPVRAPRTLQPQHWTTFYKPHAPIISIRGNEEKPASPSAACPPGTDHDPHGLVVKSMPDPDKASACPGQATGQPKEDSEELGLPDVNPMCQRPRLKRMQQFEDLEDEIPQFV

[2] = molecular target: T1, PARG (PTPL1 Associated RhoGAP), the 150 kDa component from PC-3 cell lysate (human); experiment: GST pull-down from 35S-labelled PC-3 cell lysate, SDS-gel, fluorography
[3] = molecular target: T1, PARG (PTPL1 Associated RhoGAP), the 150 kDa component from PC-3 cell lysate (human); experiment: GST pull-down from PC-3 cell lysate (restated in Example 8)

Row | Binder | binding [1] | binding [2] | binding [3]
1 | B1 | binds | binds | binds
2 | B2 | – | binds | –
